Assay results published in patent US20060074026A1.
These are yes or no findings as the source states them, for the method shown. For some assays here: In cells and extracts the contact can be indirect. Some results given as binding are weak or reduced against the parent protein; the word gives no strength.

The chains behind the UniProt entries cited, without tags or fusion partners. Where a name states a change or a piece, a line headed by the entry shows the natural chain unless it says otherwise. Residues count along the entry.
UniProt P02647: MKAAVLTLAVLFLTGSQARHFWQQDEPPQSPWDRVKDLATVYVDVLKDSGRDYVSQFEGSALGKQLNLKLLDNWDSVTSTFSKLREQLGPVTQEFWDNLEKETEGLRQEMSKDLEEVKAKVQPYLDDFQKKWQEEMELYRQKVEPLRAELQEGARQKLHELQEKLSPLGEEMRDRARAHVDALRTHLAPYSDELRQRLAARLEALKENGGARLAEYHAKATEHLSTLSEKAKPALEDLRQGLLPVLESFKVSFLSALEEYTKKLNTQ
UniProt P05164, residues 165-745: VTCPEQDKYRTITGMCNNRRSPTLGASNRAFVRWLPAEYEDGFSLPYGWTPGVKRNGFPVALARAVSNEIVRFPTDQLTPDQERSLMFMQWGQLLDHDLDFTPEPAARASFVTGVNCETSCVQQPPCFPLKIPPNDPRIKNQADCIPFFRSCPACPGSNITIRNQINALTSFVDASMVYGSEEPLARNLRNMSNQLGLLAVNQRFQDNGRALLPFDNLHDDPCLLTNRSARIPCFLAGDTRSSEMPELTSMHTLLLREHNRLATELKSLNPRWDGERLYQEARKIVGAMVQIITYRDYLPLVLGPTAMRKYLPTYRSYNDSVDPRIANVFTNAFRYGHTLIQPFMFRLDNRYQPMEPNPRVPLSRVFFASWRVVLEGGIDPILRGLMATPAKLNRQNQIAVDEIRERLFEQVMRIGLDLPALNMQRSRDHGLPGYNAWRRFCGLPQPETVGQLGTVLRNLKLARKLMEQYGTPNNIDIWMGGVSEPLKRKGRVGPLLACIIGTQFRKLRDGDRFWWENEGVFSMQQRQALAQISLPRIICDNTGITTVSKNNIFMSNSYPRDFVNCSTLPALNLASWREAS

Assays:
[1] = target: human apolipoprotein A-I (apoA-I), mature, i.e. minus the signal sequence (human) (UniProt P02647); assay: hydrogen/deuterium exchange MS, HDL with human MPO (FIG. 5)
[2] = target: human apolipoprotein A-I (apoA-I), mature, i.e. minus the signal sequence (human) (UniProt P02647); assay: co-immunoprecipitation, Western blot and Coomassie staining (FIG. 4)
[3] = target: human apolipoprotein A-I (apoA-I), mature, i.e. minus the signal sequence (human) (UniProt P02647); assay: hydrogen/deuterium exchange MS, HDL (and apoA-I in POPC lipid disks) with MPO
[4] = target: human apolipoprotein A-I (apoA-I), mature, i.e. minus the signal sequence (human) (UniProt P02647); assay: cross co-immunoprecipitation from healthy-donor plasma supplemented with purified human MPO, Western blot
[5] = target: human apolipoprotein A-I (apoA-I), mature, i.e. minus the signal sequence (human) (UniProt P02647); assay: summary of co-IP and H/D exchange MS; also co-purification of MPO with HDL-like particles from atherosclerotic lesions

Measured: binding

human myeloperoxidase (MPO; donor: hydrogen peroxide, oxidoreductase, EC 1.11.1.7), purified from human leukocytes (from UniProt P05164 165-745) (enzyme)
binds: all assays above
